Measurements: PubChem BioAssay AID2685 (National Center for Advancing Translational Sciences (NCATS), 2010)
The list shows a part of the results. The main result of the screen is listed elsewhere. These columns were measured beside it and carry no call. Most of these compounds were active or inconclusive in the main read-out, so they are no random draw. Words in brackets tell the shape of the fitted curve; partial curves, single points and poor fits give uncertain potencies.

Test: qHTS Assay for Lipid Storage Modulators in Drosophila S3 Cells;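 as to cell number change: cells counted by Cell Tracker Red CMTPX staining in the red channel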
Conditions: BODIPY lipid droplet fluorescence, 18-24 h; for cell number change: measured here: cell count max response, cells fed with added oleic acid
How it was run: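 Laser-scanning cytometry quantifies lipid droplet accumulation (500–530 nm total intensity; droplet/cell object ratio) in oleic acid-fed (400 uM added) Drosophila S3 cells treated with a concentration series. 20 uM Triacsin C defined 100% inhibition.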

[1] = measured here: cell number channel AC50, cells fed with added oleic acid
[2] = measured here: lipid fluorescence (Fed channel) AC50, cells fed with added oleic acid

Compound	cell number change	AC50 [1]	AC50 [2]
Cc1ccc2[nH]c3c(=O)n(CC(=O)NCc4ccco4)ncc3c2c1	35.7%	0.231 µM [rising, full curve, poor fit]	–
COc1ccc(S(=O)(=O)N(CC(=O)NCCSc2ccccn2)c2ccccc2)cc1	14.1%	1.46 µM [rising, partial curve, poor fit]	0.58 µM [falling, full curve]
O=c1[nH]c(C2CCN(S(=O)(=O)c3ccccc3C(F)(F)F)CC2)nc2c1nnn2Cc1ccccc1	-1.39%	–	–
CCc1noc(N)c1C(=O)Nc1ccc(F)c(Cl)c1	-27.8%	–	32.6 µM [falling, single point]
CC(OC(=O)c1cccc(-n2cnnn2)c1)C(=O)NCc1ccccc1 (centres undefined)	17%	–	4.61 µM [falling, single point]
CCCCNS(=O)(=O)c1ccc2nc(SCC(=O)Nc3ccccc3)[nH]c2c1	47.4%	29.1 µM [rising, single point]	10.3 µM [rising, partial curve, poor fit]
Cc1ccc(C2NC(C(=O)O)CS2)cc1 (centres undefined)	-23.1%	–	5.17 µM [falling, full curve]
COc1cc(NC(=O)c2cc(C3CC3)on2)c(OC)cc1Cl	29.7%	–	32.6 µM [rising, single point]
CCN(CC)CCOc1cc2c(nn1)Oc1ccccc1N2C	-7.01%	6.51 µM [falling, single point]	23.1 µM [falling, partial curve]
Cc1ccc(C(=O)NC2CCCc3c2cnn3-c2ccc(F)cc2F)cn1 (centres undefined)	-47.1%	5.8 µM [falling, full curve, poor fit]	1.84 µM [falling, full curve]
COCC(=O)N(Cc1ccc(OC)cc1)Cc1nc2ccccc2c(=O)[nH]1	93.3%	16.4 µM [rising, partial curve]	4.61 µM [falling, partial curve]
CCOc1ccc(C(=O)Nc2c3c(nn2-c2ccccc2)CS(=O)(=O)C3)cc1	16.8%	–	18.4 µM [rising, single point]
O=C(NCc1ccc2c(c1)OCO2)c1cccs1	8.03%	–	0.731 µM [rising, full curve, poor fit]
COc1ccc(C(=O)c2ccc(CC(=O)O)s2)cc1	6.92%	0.411 µM [falling, single point]	–
Clc1ccccc1OCCN1CCC(Cc2ccccc2)CC1	14.6%	–	25.9 µM [rising, single point]
C=CCn1c(SCc2ccccc2C#N)nnc1-c1cc(Br)ccc1O	-23.4%	0.82 µM [falling, full curve, poor fit]	0.231 µM [falling, partial curve, poor fit]
CCOC(=O)c1cnc(N2CCN(c3ccccc3)CC2)[nH]c1=O	-2.78%	–	3.26 µM [falling, partial curve, poor fit]
Cc1cc(NC(=O)C2CCCN(S(=O)(=O)c3cnc[nH]3)C2)ccc1Br (centres undefined)	6.3%	–	–
CN(CC(=O)NCc1ccccc1Cl)S(=O)(=O)c1ccc2c(c1)n(C)c(=O)c(=O)n2C	-8.25%	–	6.51 µM [falling, single point]
C=CCOc1ccc(CNn2cn[nH]c2=S)cc1OC	–	–	29.1 µM [falling, single point]

Compound	cell number change	AC50 [1]	AC50 [2]
CCCC(=O)Nc1cc2c(cc1C(C)=O)OCCO2	3.38%	–	–
C/C(=N\Nc1ccc([N+](=O)[O-])cc1)c1ccco1	44.3%	7.31 µM [rising, partial curve]	5.8 µM [rising, partial curve]
CCc1sc(NC(=O)CN2CCOCC2)nc1-c1ccccc1	-10.1%	0.116 µM [falling, full curve, poor fit]	0.651 µM [falling, single point]
CCOC(=O)N1CCN(S(=O)(=O)c2ccc(OCC(=O)OC)cc2)CC1	-39.3%	0.0366 µM [falling, full curve, poor fit]	5.17 µM [falling, full curve]
CSCCC(NS(=O)(=O)c1ccc(C)cc1)C(=O)N1CCCC1 (centres undefined)	15.9%	–	6.51 µM [falling, single point]
CCCCN(CC)CCCNC(=O)c1cn(-c2ccc(OC)cc2)c(=O)c2ccccc12	37.3%	29.1 µM [rising, single point]	0.58 µM [rising, single point]
CNS(=O)(=O)c1cccc(C(=O)OCc2cc(=O)oc3c(C)c(O)ccc23)c1	0.84%	–	–
O=C1/C(=C/c2cccc([N+](=O)[O-])c2)CCc2ccccc21	20.5%	0.517 µM [falling, single point]	0.206 µM [falling, full curve, poor fit]
CN(CC(=O)O)S(=O)(=O)c1cc(Cl)ccc1Cl	-92.9%	29.1 µM [falling, single point]	4.11 µM [falling, full curve]
CC(NC(=S)Nc1ccc(S(=O)(=O)N2CCOCC2)cc1)C1CC2CCC1C2 (centres undefined)	-25.4%	–	29.1 µM [falling, single point]
c1cncc(-c2ccc3ncnc(NCc4ccc5c(c4)OCO5)c3c2)c1	15.6%	–	0.731 µM [rising, single point]
Cc1ccccc1NC(=O)N1C2CCCC1CC(NC(=O)C(C)(C)C)C2 (centres undefined)	8.82%	–	0.116 µM [rising, single point]
NC(=S)Nc1ccc(F)c(F)c1F	-2.45%	–	0.517 µM [falling, full curve, poor fit]
COc1ccc(C2/C(=C(/O)c3ccc4c(c3)CC(C)O4)C(=O)C(=O)N2CCCn2ccnc2)cc1 (centres undefined)	-6.49%	–	29.1 µM [rising, single point]
O=[N+]([O-])c1ccccc1CN1CCN(Cc2c[nH]c3ccccc23)CC1	19.8%	–	1.16 µM [falling, single point]
Cc1ccc(S(=O)(=O)Nc2nc(C)c(NC(=O)OCCCl)s2)cc1	27.7%	–	–
CCN1C(=O)CC(C(=O)NCCc2ccc(S(N)(=O)=O)cc2)SC1=Nc1ccc(OC)cc1 (centres undefined)	6.87%	3.26 µM [falling, single point]	2.91 µM [falling, single point]
COc1ccc(NC(=S)N(CCc2c(C)[nH]c3ccccc23)Cc2ccco2)cc1	-14.9%	–	3.26 µM [rising, partial curve]
Cn1cnnc1SCC(=O)c1c[nH]c2ccccc12	1.38%	–	–
COc1ccccc1CNS(=O)(=O)c1c(C(=O)N2CCCCC2)c(C)n(C)c1C	-20.8%	–	23.1 µM [falling, single point]

Compound	cell number change	AC50 [1]	AC50 [2]
N/C(=N\OC(=O)CCC1CCCC1)c1ccccc1	12.9%	–	3.26 µM [rising, single point]
COc1cc(C(=O)N2CCN(c3cccc(C)c3C)CC2)ccc1OCC(=O)N1CCOCC1	-3.08%	–	1.64 µM [rising, partial curve]
CNC[C@H](CC1CCCCC1)NC[C@H](Cc1ccccc1)NCCC12CC3CC(CC(C3)C1)C2	-29.6%	–	16.4 µM [falling, partial curve]
COc1ccc2[nH]c(=S)[nH]c2c1	45%	16.4 µM [rising, single point]	4.11 µM [falling, single point]
COc1ccc(NC(=O)C2CCN(C(=O)[C@@H]3Cc4ccccc4CN3C(=O)OC(C)(C)C)CC2)cc1	2.02%	–	–
Cc1ccc(/C=C2\SC(=S)N(CCC(=O)NNC(=O)c3ccc(O)cc3)C2=O)cc1	13%	–	0.651 µM [rising, single point]
COc1cc(C=O)ccc1OS(=O)(=O)c1ccccc1[N+](=O)[O-]	12.7%	3.66 µM [falling, single point]	6.51 µM [falling, single point]
CCOc1ccc(CCNC(=O)C2CCN(c3nnc(-n4cccc4)s3)CC2)cc1	–	–	0.291 µM [rising, full curve, poor fit]
CC(C)OC(=O)/C(=C\C=C\c1ccccc1)NC(=O)c1ccccc1	-41.2%	23.1 µM [falling, single point]	20.6 µM [falling, single point]
CCn1cc(Br)c(C(=O)Nc2cccc(SC)c2)n1	-18.7%	–	2.59 µM [rising, single point]
O=C(CN1C(=O)/C(=C/c2ccccc2)Sc2ccccc21)NCCCN1CCOCC1	26.9%	0.0411 µM [rising, full curve, poor fit]	–
CCOc1cccc(-c2c(C(=O)N/N=C/c3ccsc3)nnn2-c2nonc2N)c1	-24.2%	–	23.1 µM [falling, single point]
COc1cc(NC(=O)C2CCCCC2)c2ncccc2c1	–	–	0.326 µM [falling, partial curve, poor fit]
CCOC(=O)c1nc(-c2ccccc2)oc1N1CCOCC1	161%	–	–
CC(=O)NCCNC(=O)c1ccc2c(c1)S(=O)(=O)c1ccccc1C2=O	-12.4%	–	–
O=C(N/N=C/c1ccc(N2CCOCC2)cc1)c1ccccc1OCCOc1ccccc1	-21%	–	29.1 µM [falling, single point]
CC(=O)N1c2c(cc(Br)cc2S(=O)(=O)N2CCCCC2)CC1C (centres undefined)	3.48%	–	–
CCn1c(=O)cc(OCC(=O)Nc2cccc(C)n2)c2ccccc21	–	0.411 µM [rising, full curve]	10.3 µM [rising, partial curve]

Structural class, the entries above containing a tert-butyl group
Compound	cell number change	AC50 [1]	AC50 [2]
Cc1ccccc1NC(=O)N1C2CCCC1CC(NC(=O)C(C)(C)C)C2 (centres undefined)	8.82%	–	0.116 µM [rising, single point]
COc1ccc(NC(=O)C2CCN(C(=O)[C@@H]3Cc4ccccc4CN3C(=O)OC(C)(C)C)CC2)cc1	2.02%	–	–
